Test results: PubChem BioAssay AID248 (DTP/NCI, 2004)
The list does not hold the whole screen: it is rich in T/C values a quarter to a half above the control, in often repeated tests (any T/C) and in doses without a T/C. Other doses and runs of a compound stand elsewhere. T/C is the treated group as % of the vehicle group. Some doses have a count of surviving animals in place of a T/C: the source holds a T/C of zero for them, seemingly a mark for toxic or unscored doses. Some survivor counts are full or nearly so, which does not show that the dose was tolerated: the source hardly ever lists a survival T/C far under the control, and the zero likely stands for such cases as well. Survivors were counted at the toxicity check, usually on the fifth day, unless a day is given; later deaths do not show. Schedules are NCI's codes, read here as Q, the interval in days (D) or hours (H), X, the number of doses. Some entries hold several experiments; the values are given in rising order. Where survival is the endpoint, the PubChem record calls one and a half times the control and up active, and a quarter to a half above the control has no call in these data; cut-offs in other NCI protocols can differ.

Test system: L1210 leukemia ip in BDF1 mice, survival T/C
Test: NCI In Vivo Anticancer Drug Screen. Data for tumor model L1210 Leukemia (intraperitoneal) in B6D2F1 (BDF1) mice
Conditions: T/C endpoint: mean survival time, higher T/C = longer survival
[1] = dose: 100.0 mg/kg/injection, schedule: Q01DX009 (ip), vehicle: Klucel (hydroxypropylcellulose) (HPC)
[2] = dose: 200.0 mg/kg/injection, schedule: Q04DX003 (ip), vehicle: Klucel (hydroxypropylcellulose) (HPC)
[3] = dose: 400.0 mg/kg/injection, schedule: Q04DX003 (ip), vehicle: Klucel (hydroxypropylcellulose) (HPC)

COC12C(COC(=O)NCCO)C3=C(C(=O)C(C)=C(N)C3=O)N1CC1NC12 (centres undefined)
T/C (dose: 20.0 mg/kg/injection, schedule: Q01DX009 (ip), vehicle: saline): 140 % of control | survivor count (dose: 21.0 mg/kg/injection, schedule: Q04DX003 (ip), vehicle: saline): 10 of 10 | survivor count (dose: 43.0 mg/kg/injection, schedule: Q01DX001 (ip), vehicle: saline): 10 of 10 | T/C (dose: 43.0 mg/kg/injection, schedule: Q01DX003 (ip), vehicle: Klucel (hydroxypropylcellulose) (HPC)): 149 % of control | survivor count (dose: 43.0 mg/kg/injection, schedule: Q04DX003 (ip), vehicle: saline): 10 of 10 | T/C (dose: 65.0 mg/kg/injection, schedule: Q01DX001 (ip), vehicle: Klucel (hydroxypropylcellulose) (HPC)): 134 % of control | survivor count (dose: 65.0 mg/kg/injection, schedule: Q01DX001 (ip), vehicle: saline): 10 of 10 | T/C (dose: 65.0 mg/kg/injection, schedule: Q01DX003 (ip), vehicle: Klucel (hydroxypropylcellulose) (HPC)): 149 % of control | survivor count (dose: 65.0 mg/kg/injection, schedule: Q01DX009 (ip), vehicle: Klucel (hydroxypropylcellulose) (HPC)): 10 of 10 | survivor count (dose: 65.0 mg/kg/injection, schedule: Q04DX003 (ip), vehicle: saline): 10 of 10 | T/C (dose: 100.0 mg/kg/injection, schedule: Q01DX001 (ip), vehicle: Klucel (hydroxypropylcellulose) (HPC)): 139 % of control | survivor count (dose: 100.0 mg/kg/injection, schedule: Q01DX001 (ip), vehicle: saline): 9 of 10 | survivor count [1]: 6 of 10 | T/C (dose: 100.0 mg/kg/injection, schedule: Q04DX002 (ip), vehicle: Klucel (hydroxypropylcellulose) (HPC)): 137 % of control | survivor count (dose: 100.0 mg/kg/injection, schedule: Q04DX003 (ip), vehicle: saline): 10 of 10 | survivor count (dose: 150.0 mg/kg/injection, schedule: Q01DX001 (ip), vehicle: saline): 6 of 10 | survivor count (dose: 150.0 mg/kg/injection, schedule: Q01DX009 (ip), vehicle: Klucel (hydroxypropylcellulose) (HPC)): 1 of 10 | survivor count (dose: 150.0 mg/kg/injection, schedule: Q04DX003 (ip), vehicle: saline): 10 of 10 | survivor count (dose: 225.0 mg/kg/injection, schedule: Q01DX001 (ip), vehicle: saline): 10 of 10 | survivor count (dose: 225.0 mg/kg/injection, schedule: Q01DX009 (ip), vehicle: Klucel (hydroxypropylcellulose) (HPC)): 0 of 10 | survivor count (dose: 225.0 mg/kg/injection, schedule: Q04DX003 (ip), vehicle: saline): 7 of 10

CCCCC(NC(=O)C(F)(F)F)C(=O)O (centres undefined)
survivor count (dose: 400.0 mg/kg/injection, schedule: Q01DX009 (ip), vehicle: carboxymethylcellulose (CMC)): 5 of 6

O=C(Nc1ccc2c(c1)OCO2)N1CC1
survivor count (dose: 40.0 mg/kg/injection, schedule: Q01DX009 (ip), vehicle: Klucel (hydroxypropylcellulose) (HPC)): 0 of 6 | survivor count (dose: 80.0 mg/kg/injection, schedule: Q04DX003 (ip), vehicle: Klucel (hydroxypropylcellulose) (HPC)): 1 of 6 | survivor count (dose: 100.0 mg/kg/injection, schedule: Q04DX003 (ip), vehicle: Klucel (hydroxypropylcellulose) (HPC)): 4 of 6 | survivor count [2]: 0 of 6 | survivor count [3]: 0 of 6

O=[N+]([O-])c1ccc(Cl)c(OCCCCOc2ccc(S(=O)(=O)F)cc2)c1
survivor count [3]: 6 of 6

CC(C)CP(=O)(CC(C)C)CC(C)C
survivor count (dose: 12.5 mg/kg/injection, schedule: Q04DX003 (ip), vehicle: saline with Tween-80): 6 of 6 | survivor count (dose: 25.0 mg/kg/injection, schedule: Q04DX003 (ip), vehicle: saline with Tween-80): 1 of 6 and 5 of 6 | survivor count (dose: 50.0 mg/kg/injection, schedule: Q04DX003 (ip), vehicle: saline with Tween-80): 0 of 6 | survivor count (dose: 100.0 mg/kg/injection, schedule: Q04DX003 (ip), vehicle: saline with Tween-80): 0 of 6 | survivor count (dose: 200.0 mg/kg/injection, schedule: Q04DX003 (ip), vehicle: saline with Tween-80): 0 of 6 | survivor count (dose: 400.0 mg/kg/injection, schedule: Q04DX003 (ip), vehicle: saline with Tween-80): 0 of 6

CSc1ncc(C(=O)O)c(=O)[nH]1
survivor count (dose: 200.0 mg/kg/injection, schedule: Q01DX009 (ip), vehicle: Klucel (hydroxypropylcellulose) (HPC)): 6 of 6

O=[N+]([O-])c1cc(Cl)cc2c1nc(NCCO)c1ccccc12
survivor count [1]: 6 of 6 | survivor count [2]: 6 of 6 | survivor count [3]: 3 of 6

CCCCC(CC)CC1C(=O)NC(=S)NC1=O (centres undefined)
survivor count (dose: 300.0 mg/kg/injection, schedule: Q01DX001 (ip), vehicle: saline): 2 of 6
